Laboratory results: PubChem BioAssay AID493014 (National Center for Advancing Translational Sciences (NCATS), 2011)
The list shows a part of the results. These are further read-outs of the screen, such as a control signal, another cell line or another target. No call is given for them. The list favours compounds with an active or inconclusive main result. Potencies come from curve fits of mixed quality, noted in brackets.

Assay: qHTS Assay to Find Inhibitors of Chronic Active B-Cell Receptor Signaling
Details: ABC-DLBCL IkBa-CBG/CBR reporter, luminescence ratio (green luciferase fused to IkBa over red control in TMD8 lymphoma cells), 4 h
Outline: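 Doxycycline induced both beetle luciferases in TMD8 lymphoma cells; IKK-driven degradation limits the IkappaBalpha-fused green signal, while red luminescence normalises for cell number and nonspecific effects. Compounds tested up to 46 uM, 4 hrs.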

[1] = measured here: CBR red luminescence, cell number
[2] = measured here: IkBa-CBG green luminescence

Structure (SMILES) | AC50 [1] | AC50 [2]
Cc1ccc(C(=O)Nc2cc3[nH]c(=O)oc3cc2C)cc1 | 0.794 µM [falling, partial curve, poor fit] | –
Cc1nn(CCC(=O)NNC(=S)Nc2ccc([N+](=O)[O-])cc2)c(C)c1[N+](=O)[O-] | 0.708 µM [rising, full curve, poor fit] | –
Cc1cccc(C(=O)Nc2cccc3c2CCCC3)c1 | 15.8 µM [rising, partial curve] | –
O=C(Nc1ccc(F)cc1)c1cc2cc(Cl)ccc2[nH]1 | 7.94 µM [falling, partial curve, poor fit] | –
COc1cc(C2NCCc3c2[nH]c2ccccc32)ccc1OC(C)C (centres undefined) | 35.5 µM [falling, single point] | –
CCCNC(=O)c1ccc(-c2nn(C)c(=O)c3ccccc23)cc1 | 12.6 µM [rising, partial curve, poor fit] | 11.2 µM [falling, partial curve, poor fit]
Cc1cc(=O)[nH]c(N/N=C/c2ccc(-c3ccc(F)cc3)o2)n1 | 1.78 µM [falling, partial curve] | –
CN(C)c1cc[nH]c(=O)c1C#N | 14.6 µM [falling, partial curve, poor fit] | –
CCN(CC)CCNCc1cc(Cl)c(OCC(=O)Nc2ccccc2)c(OC)c1 | 12.6 µM [falling, single point] | –
N/C(Cc1cccc2ccccc12)=N\OC(=O)Cc1cccs1 | 14.6 µM [rising, single point] | –
COc1ccc(N2CCN(C(=O)CSc3ncccc3-c3nc4ccccc4[nH]3)CC2)cc1 | 2 µM [falling, full curve, poor fit] | –
Cc1ccc(OCC(=O)OCC(=O)NC2CC2)cc1C | 1.84 µM [rising, partial curve, poor fit] | –
c1ccc2c(c1)[nH]c1c3ccccc3sc21 | 1.41 µM [rising, partial curve] | 25.1 µM [rising, partial curve, poor fit]
COC(=O)CSc1nnc(-c2sc3ccccc3c2Cl)o1 | 2.51 µM [falling, full curve, poor fit] | –
O=C(CCN1C(=O)c2ccccc2C1=O)N1CCN(c2ccccn2)CC1 | 6.31 µM [falling, single point] | –
CCOC(=O)c1cc(NCc2cccs2)ccc1N1CCOCC1 | 35.5 µM [rising, partial curve, poor fit] | –
Cc1c(CCC(=O)N2CCC(C(=O)O)(c3ccccc3)CC2)c(=O)oc2cc3oc4c(c3cc12)CCCC4 | 7.94 µM [rising, partial curve] | 12.6 µM [falling, partial curve]
Cc1cccc(-n2ncc3c(NCCc4ccc(S(N)(=O)=O)cc4)ncnc32)c1 | 1.3 µM [falling, full curve] | –
C=CCn1c(SC(C)C(=O)NCc2ccc3c(c2)OCO3)nnc1C1CCCCC1 (centres undefined) | 28.2 µM [falling, single point] | –
CNCCOc1ccccc1-c1ccccc1 | 29.1 µM [falling, single point] | –

One compound at a time, from the list above. Values in the order: AC50 [1]	AC50 [2]
Cc1cccc(C(=O)Nc2cccc3c2CCCC3)c1 is entered as 15.8 µM [rising, partial curve]	–
Cc1nn(CCC(=O)NNC(=S)Nc2ccc([N+](=O)[O-])cc2)c(C)c1[N+](=O)[O-] is entered as 0.708 µM [rising, full curve, poor fit]	–

Later entries.

Structure (SMILES) | AC50 [1] | AC50 [2]
Cc1cccc(C(=O)N(CC(=O)Nc2sc(C)c(C)c2C(N)=O)C2CCCC2)c1 | 3.98 µM [falling, partial curve] | –
CCCCOC(=O)c1ccc(NC(=O)C2CCCO2)cc1 (centres undefined) | 5.17 µM [rising, full curve, poor fit] | –
O=C(NCCCN1CCOCC1)C(=O)NCc1ccccc1Cl | 2.51 µM [falling, partial curve, poor fit] | –
CCC(=O)N1CCc2cc(Br)cc(S(=O)(=O)NCCN3CCCC3)c21 | 11.2 µM [rising, partial curve, poor fit] | –
CCOC(=O)C1(Cc2ccccc2)CCCN(Cc2ccncc2)C1 (centres undefined) | 1.26 µM [falling, partial curve, poor fit] | –
CN(C)c1ccc(/C=C(\C#N)C(=O)OCC(=O)N(C)C2CCS(=O)(=O)C2)cc1 (centres undefined) | 29.1 µM [rising, single point] | –
COc1ccc(-c2cnc3c(c2)CCC3(C#N)C#N)cc1 | 4.11 µM [rising, full curve] | 7.31 µM [falling, partial curve]
Cc1ccc(C(=O)N/C(=C\c2cccs2)C(=O)NCCCn2ccnc2)cc1C | 6.31 µM [rising, single point] | –
CCCCOc1ccc(-c2nnn(C(C)(C)C(=O)OC)n2)cc1 | 2.91 µM [rising, full curve] | –
Cc1ccc(C)c(CS(=O)(=O)c2cn(CC(=O)N3CCCCC3)c3ccccc23)c1 | 18.4 µM [falling, single point] | –
CCCCN(CCCC)/C(N)=N/c1nc(C)cc(C)n1 | 0.794 µM [falling, full curve, poor fit] | –
COc1ccc2nc(NC(=O)CSc3nc4cccnc4n3C)sc2c1 | 2.06 µM [falling, partial curve] | –
Cc1ccc(C(=O)C(C)OC(=O)c2ccccc2[N+](=O)[O-])cc1 (centres undefined) | 16.4 µM [rising, partial curve] | –
O=C(CCCN1C(=O)/C(=C/c2ccco2)SC1=S)Nc1ccccc1C(=O)O | 12.6 µM [falling, partial curve, poor fit] | –
CC(C)C(=O)Nc1cc2c3c(c1)CCN3C(=O)CC2 | 22.4 µM [rising, single point] | –
COc1cccc(NC(=O)Cn2cc3c(n2)CCCCC3)c1 | 11.6 µM [falling, partial curve, poor fit] | –
COCCN(CC(=O)Nc1cccc(C)c1C)C(=O)Cc1cccs1 | 29.1 µM [rising, single point] | –
COc1ccc(S(=O)(=O)Nc2ccc(NC(C)=O)cc2)cc1OC | 20.6 µM [rising, partial curve, poor fit] | –
CCOC(=O)C(C)Sc1nnc(NC(=O)c2ccc(C)c([N+](=O)[O-])c2)s1 (centres undefined) | 20.6 µM [falling, partial curve] | –
NC(=O)Oc1cccc(OC(N)=O)c1 | 14.1 µM [rising, single point] | –
